{"source": "PubChem BioAssay AID1259405 (NCATS, 2018)", "screen": "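Mouse-designed siRNAs used to find CHO productivity engineering targets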 (primary screen)", "system": "Chinese hamster CHO-K1 ovary cells with stable secreted eGFP expression", "reagents": "single siRNA against mouse genes, 0.8 pmol siRNA per well (2 µl of 400 nM stock)", "duration": "3 days", "measured": "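Per-well intracellular GFP measured by laser scanning cytometry, plus viability from ATP luminescence, each relative to plate median of non-targeting control wells, in %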", "direction": "GFP, % of control: higher = more GFP per well, higher productivity; viability (ATP), % of control: higher = more viable cells (more ATP)", "call rule": "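Called active when intracellular GFP, relative to negative control, is at or above 120%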", "note": "Shown is an unselected part of about 50,000 reagents. About 4,000 of them (8%) were called active. 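Mouse siRNA library applied to hamster cells; one well for each siRNA.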 A number with no mark means an inactive call. The numbers tell different reagents against one gene apart."}
{"gene": "Ptcd3 (GeneID 69956)", "reagent no.": 1, "GFP, % of control": 80, "viability (ATP), % of control": 81.9}
{"gene": "Ptcd3 (GeneID 69956)", "reagent no.": 2, "GFP, % of control": 62.4, "viability (ATP), % of control": 40.7}
{"gene": "Ptcd3 (GeneID 69956)", "reagent no.": 3, "GFP, % of control": 82.8, "viability (ATP), % of control": 78.1}
{"gene": "Brd7 (GeneID 26992)", "reagent no.": 1, "GFP, % of control": 59.3, "viability (ATP), % of control": 61.9}
{"gene": "Brd7 (GeneID 26992)", "reagent no.": 2, "GFP, % of control": 78.6, "viability (ATP), % of control": 99}
{"gene": "Brd7 (GeneID 26992)", "reagent no.": 3, "GFP, % of control": 38.4, "viability (ATP), % of control": 55.2}
{"gene": "Dhrs7c (GeneID 68460)", "reagent no.": 1, "GFP, % of control": 73.8, "viability (ATP), % of control": 58.3}
{"gene": "Dhrs7c (GeneID 68460)", "reagent no.": 2, "GFP, % of control": 92.1, "viability (ATP), % of control": 61.5}
{"gene": "Dhrs7c (GeneID 68460)", "reagent no.": 3, "GFP, % of control": 77.7, "viability (ATP), % of control": 78.1}
{"gene": "Nsun2 (GeneID 28114)", "reagent no.": 1, "GFP, % of control": 67.8, "viability (ATP), % of control": 74.3}
{"gene": "Nsun2 (GeneID 28114)", "reagent no.": 2, "GFP, % of control": 63.2, "viability (ATP), % of control": 72.5}
{"gene": "Nsun2 (GeneID 28114)", "reagent no.": 3, "GFP, % of control": 36.1, "viability (ATP), % of control": 43.2}
{"gene": "Polr2c (GeneID 20021)", "reagent no.": 1, "GFP, % of control": 60.3, "viability (ATP), % of control": 54.4}
{"gene": "Polr2c (GeneID 20021)", "reagent no.": 2, "GFP, % of control": 67.2, "viability (ATP), % of control": 116}
{"gene": "Polr2c (GeneID 20021)", "reagent no.": 3, "GFP, % of control": 66.8, "viability (ATP), % of control": 43.1}
{"gene": "Prpf40b (GeneID 54614)", "reagent no.": 1, "GFP, % of control": 74.4, "viability (ATP), % of control": 72}
{"gene": "Prpf40b (GeneID 54614)", "reagent no.": 2, "GFP, % of control": 49.1, "viability (ATP), % of control": 60.3}
{"gene": "Prpf40b (GeneID 54614)", "reagent no.": 3, "GFP, % of control": 67.5, "viability (ATP), % of control": 52.9}
{"gene": "Ciao3 (GeneID 67563)", "reagent no.": 1, "GFP, % of control": "230 (active)", "viability (ATP), % of control": 61.6}
{"gene": "Ciao3 (GeneID 67563)", "reagent no.": 2, "GFP, % of control": 67.7, "viability (ATP), % of control": 35}
{"gene": "Ciao3 (GeneID 67563)", "reagent no.": 3, "GFP, % of control": 76.6, "viability (ATP), % of control": 89}
{"gene": "Ciao3 (GeneID 67563)", "reagent no.": 4, "GFP, % of control": 89.6, "viability (ATP), % of control": 86.1}
{"gene": "Ciao3 (GeneID 67563)", "reagent no.": 5, "GFP, % of control": 59.6, "viability (ATP), % of control": 93.2}
{"gene": "Ciao3 (GeneID 67563)", "reagent no.": 6, "GFP, % of control": 86.3, "viability (ATP), % of control": 92.9}
{"gene": "Gemin2 (GeneID 66603)", "reagent no.": 1, "GFP, % of control": 68.5, "viability (ATP), % of control": 78.2}
{"gene": "Gemin2 (GeneID 66603)", "reagent no.": 2, "GFP, % of control": 83, "viability (ATP), % of control": 83.7}
{"gene": "Gemin2 (GeneID 66603)", "reagent no.": 3, "GFP, % of control": 68.6, "viability (ATP), % of control": 70.2}
{"gene": "Itk (GeneID 16428)", "reagent no.": 1, "GFP, % of control": 93.3, "viability (ATP), % of control": 73.7}
{"gene": "Arpp19 (GeneID 59046)", "reagent no.": 1, "GFP, % of control": 70.4, "viability (ATP), % of control": 52.3}
{"gene": "Arpp19 (GeneID 59046)", "reagent no.": 2, "GFP, % of control": 79.7, "viability (ATP), % of control": 73}
{"gene": "Arpp19 (GeneID 59046)", "reagent no.": 3, "GFP, % of control": 43, "viability (ATP), % of control": 50.7}
{"gene": "Slc39a5 (GeneID 72002)", "reagent no.": 1, "GFP, % of control": "192 (active)", "viability (ATP), % of control": 30}
{"gene": "Slc39a5 (GeneID 72002)", "reagent no.": 2, "GFP, % of control": 86.4, "viability (ATP), % of control": 54.2}
{"gene": "Slc39a5 (GeneID 72002)", "reagent no.": 3, "GFP, % of control": 69.1, "viability (ATP), % of control": 59.4}
{"gene": "Pnma8a (GeneID 71691)", "reagent no.": 1, "GFP, % of control": 106, "viability (ATP), % of control": 68.3}
{"gene": "Pnma8a (GeneID 71691)", "reagent no.": 2, "GFP, % of control": 76, "viability (ATP), % of control": 77.3}
{"gene": "Pnma8a (GeneID 71691)", "reagent no.": 3, "GFP, % of control": 94.4, "viability (ATP), % of control": 109}
{"gene": "A430010J10Rik (GeneID 319665)", "reagent no.": 1, "GFP, % of control": 85.3, "viability (ATP), % of control": 91.8}
{"gene": "A430010J10Rik (GeneID 319665)", "reagent no.": 2, "GFP, % of control": 69, "viability (ATP), % of control": 58.8}
{"gene": "A430010J10Rik (GeneID 319665)", "reagent no.": 3, "GFP, % of control": 56.5, "viability (ATP), % of control": 69.2}
{"gene": "Rpf2 (GeneID 67239)", "reagent no.": 1, "GFP, % of control": 74.9, "viability (ATP), % of control": 95.6}
{"gene": "Rpf2 (GeneID 67239)", "reagent no.": 2, "GFP, % of control": 49.1, "viability (ATP), % of control": 43.5}
{"gene": "Rpf2 (GeneID 67239)", "reagent no.": 3, "GFP, % of control": 63.4, "viability (ATP), % of control": 67}
{"gene": "Dpysl2 (GeneID 12934)", "reagent no.": 1, "GFP, % of control": "136 (active)", "viability (ATP), % of control": 111}
{"gene": "Dpysl2 (GeneID 12934)", "reagent no.": 2, "GFP, % of control": 90.5, "viability (ATP), % of control": 92.9}
{"gene": "Dpysl2 (GeneID 12934)", "reagent no.": 3, "GFP, % of control": 90.4, "viability (ATP), % of control": 94.1}
{"gene": "Oat (GeneID 18242)", "reagent no.": 1, "GFP, % of control": 84.8, "viability (ATP), % of control": 81.3}
{"gene": "Oat (GeneID 18242)", "reagent no.": 2, "GFP, % of control": 102, "viability (ATP), % of control": 151}
{"gene": "Oat (GeneID 18242)", "reagent no.": 3, "GFP, % of control": 84.3, "viability (ATP), % of control": 84.9}
{"gene": "Ado (GeneID 211488)", "reagent no.": 1, "GFP, % of control": 60.6, "viability (ATP), % of control": 84.1}
{"gene": "Ado (GeneID 211488)", "reagent no.": 2, "GFP, % of control": 61.7, "viability (ATP), % of control": 77}
{"gene": "Ado (GeneID 211488)", "reagent no.": 3, "GFP, % of control": 85.8, "viability (ATP), % of control": 88.7}
